Measured values published in PubChem BioAssay AID2685 (National Center for Advancing Translational Sciences (NCATS), 2010).
In all, about 320,000 compounds went through this assay and about 2,100 (0.66%) were called active. This list was built around the results that the source calls inconclusive (neither active nor inactive); the mix of calls is not that of the screen. Calls come from the whole dose curve; as a rule, active = well fitted inhibition curve with a large enough effect in the signal ratio, with a control signal flat (not every such curve was filed as active); inconclusive = small, poorly fitted or top-dose-only effect, or effect the other way, or a change in a side signal; inactive = flat fitted curve, though single readings scatter; the % refers to the signal ratio. Potencies of inconclusive entries are doubtful fits and often do not repeat.

Experiment: qHTS Assay for Lipid Storage Modulators in Drosophila S3 Cells
Conditions: BODIPY lipid droplet fluorescence, 18-24 h, cells fed with added oleic acid; lipid storage change, negative = inhibition: at 46.1 µM (top of the series) unless noted
How it was run: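 Laser-scanning cytometry quantifies lipid droplet accumulation (500–530 nm total intensity; droplet/cell object ratio) in oleic acid-fed (400 uM added) Drosophila S3 cells treated with a concentration series. 20 uM Triacsin C defined 100% inhibition.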
% is set by controls: 0 for no effect and ±100 for the full control effect; potency is the fitted concentration of half-maximal effect.

| SMILES | lipid storage change, negative = inhibition | Potency |
| --- | --- | --- |
| COc1ccccc1NC(=S)N(Cc1ccco1)Cc1cc2ccc(C)c(C)c2[nH]c1=O | inconclusive: 4.52% | – |
| CC(C)(C)C1CCC(C(=O)Nc2nccs2)CC1 (stereo not given) | – | inconclusive: 29.1 µM [activator, single point] |
| Cc1cccc(C(=O)OCC(=O)NC(=O)c2ccccc2)c1O | inconclusive: -1.31% | – |
| O=C(CC12CC3CC(CC(C3)C1)C2)N1CCCOC1 | – | inconclusive: 1.3 µM [falling, full curve] |
| CCc1ccccc1NC(=O)C1CCCN(c2nn3c(=O)cc(C)nc3s2)C1 (stereo not given) | – | inconclusive: 29.1 µM [falling, single point] |
| O=[N+]([O-])c1ccccc1S(=O)(=O)NC1CC2CCC1C2 (stereo not given) | – | inconclusive: 29.1 µM [falling, single point] |
| N#Cc1ccccc1Sc1ccccc1C(=O)OCC(=O)NC12CC3CC(CC(C3)C1)C2 | – | inconclusive: 4.61 µM [falling, partial curve, poor fit] |
| CC(C)c1ccc(CC(NC(=O)c2ccccc2)C(=O)NCC(=O)O)cc1 (stereo not given) | inconclusive: -84.5% | – |
| Cc1cccc(NC(=S)NNC(=O)c2ccc3c(c2)OCO3)c1 | – | inconclusive: 6.51 µM [activator, partial curve] |
| COc1ccc(CSCC(=O)N/N=C/c2ccccc2O)cc1 | – | inconclusive: 20.6 µM [falling, single point] |
| CC(=O)Nc1ccc(OC(F)(F)C(F)F)c(NC(C)=O)c1 | inconclusive: -4.89% | – |
| CCOc1ccccc1Nc1nnc(SCC(=O)Nc2ccc3[nH]c(=O)[nH]c3c2)s1 | – | inconclusive: 29.1 µM [activator, single point] |
| Cc1cc(C)nc(SCC(=O)Nc2ccc(S(=O)(=O)NCCO)cc2)n1 | inconclusive: 44.6% | – |
| O=C(CSc1nnc(CNc2ccc(F)cc2)o1)N1CCN(C(=O)c2ccco2)CC1 | inconclusive: 23.1% | – |
| O=[N+]([O-])c1cc(NS(=O)(=O)c2ccc(Cl)nc2)ccc1Cl | inconclusive: -17.1% | – |
| CCn1c(CNc2ccc(Cl)cc2)nnc1SCC(=O)NCc1ccccc1 | – | inconclusive: 29.1 µM [activator, single point] |
| COc1ccc(-n2c(-c3ccc(F)cc3)cnc2SCC(=O)NCc2ccco2)cc1 | – | inconclusive: 0.517 µM [activator, single point] |
| Cn1ccnc1C1CCCCN1C(=O)c1cc(COc2ccc(F)cc2F)on1 (stereo not given) | inconclusive: -0.355% | – |
| COc1ccccc1NC(=O)c1cnc(Nc2ccccc2OC)c2ccccc12 | – | inconclusive: 4.61 µM [activator, full curve] |
| CCOC(=O)c1c(C)[nH]c(C)c1S(=O)(=O)N(C)CC(=O)Nc1cc(C)ccc1OC | – | inconclusive: 1.3 µM [falling, full curve] |
| Cc1cccc(N(Cc2ccccc2)C(=O)C2CCN(C(=O)c3ccccc3C)CC2)c1 | – | inconclusive: 16.4 µM [falling, single point] |
| CN1C(=O)c2ccccc2C(C(=O)NCc2ccco2)C1c1c[nH]c2ccccc12 (stereo not given) | inconclusive: 9.33% | – |
| Cc1cc(NC(=O)c2ccco2)ncc1NC(=O)Cc1ccccc1 | – | inconclusive: 1.16 µM [activator, full curve] |

| SMILES | lipid storage change, negative = inhibition | Potency |
| --- | --- | --- |
| CCc1c(C)nc2ncnn2c1N1CCC(C(=O)NCc2ccc3c(c2)OCO3)CC1 | – | inconclusive: 8.2 µM [activator, partial curve] |
| O=S(=O)(NCc1csc(-c2cccnc2)n1)c1cccs1 | – | inconclusive: 0.517 µM [activator, partial curve] |
| O=C(CSc1nc2ccccc2c(=O)n1CCCN1CCOCC1)N1CCN(c2ccccc2)CC1 | inconclusive: 12.6% | – |
| CCC(C)[C@H]1CNCCN1CCc1cccc2ccccc12 (stereo not given in full) | inconclusive: 12.7% | – |
| Cc1cc(OC(=O)c2cc(Cl)ccc2Cl)c([N+](=O)[O-])c(=O)[nH]1 | – | inconclusive: 0.651 µM [falling, partial curve, poor fit] |
| COCCn1c(=O)[nH]c2cc(C(=O)NCCN3CCN(c4ccccc4F)CC3)ccc2c1=O | inactive: -1.14% | – |
| COc1cccc(-c2nc(CS(=O)(=O)CC(=O)Nc3ccccc3Br)c(C)o2)c1 | – | inconclusive: 29.1 µM [falling, single point] |
| Cc1nn(-c2ccc(N3CCOCC3)nn2)c(C)c1CCC(=O)NCc1ccccc1F | inconclusive: -29.2% | – |
| COc1ccc(-c2noc(N3CCCC(C(=O)Nc4ccccc4F)C3)n2)cc1 (stereo not given) | inconclusive: -23% | – |
| Cc1cc(C)c(NC(=O)COC(=O)COc2ccc3c(C)cc(=O)oc3c2)c(Cl)c1 | inconclusive: 12.9% | – |
| CC(=O)Nc1ccc(S(=O)(=O)N(C)CC(=O)OCC(=O)N(C)C2CCS(=O)(=O)C2)cc1 (stereo not given) | inconclusive: 44.6% | – |
| CCn1cc(C(=O)NCc2ccccc2Cl)cn1 | inconclusive: 16.2% | – |
| N#CCn1nnc(-c2ccc3c(c2)OCO3)n1 | – | inconclusive: 9.2 µM [activator, partial curve] |
| O=C(c1ccco1)c1cc2c(ccc3ccccc32)oc1=O | inconclusive: 34.4% | – |
| COC(=O)C(NS(=O)(=O)c1cccc(S(=O)(=O)NC(C(=O)OC)c2ccccc2)c1)c1ccccc1 (stereo not given) | – | inconclusive: 8.2 µM [falling, partial curve, poor fit] |
| O=C(O)CSCC(=O)NCc1cccc(C(F)(F)F)c1 | inconclusive: 60.8% | – |
| O=C(Nc1sc2c(c1C(=O)O)CCCCC2)c1ccccc1F | inactive: -22.6% | – |
| COc1ccc(OCC(=O)NNC(=O)c2nn(C)c(=O)c3ccccc23)cc1 | inconclusive: 23.2% | – |
| CC1(C)CC(=O)c2cc(N=C/C(C(=O)c3ccccc3)=C(\O)c3ccccc3)c(=O)oc2C1 | – | inconclusive: 29.1 µM [falling, single point] |
| COC(=O)c1sc(-c2ccccc2)cc1NC(=O)c1cc(OC)cc(OC)c1 | inconclusive: 9.57% | – |
| COc1ccc(C(=O)Nc2ccc(NC(=O)C3CC3)nc2)cc1 | inconclusive: 1.37% | – |
| CN(CC(=O)Nc1ccc(F)cc1)C(=O)COC(=O)COc1ccc(C#N)cc1 | inconclusive: -11.5% | – |

Already shown: entries from further up.

| SMILES | lipid storage change, negative = inhibition | Potency |
| --- | --- | --- |
| CCn1cc(C(=O)NCc2ccccc2Cl)cn1 | inconclusive: 16.2% | – |
| N#CCn1nnc(-c2ccc3c(c2)OCO3)n1 | – | inconclusive: 9.2 µM [activator, partial curve] |
